## Percent effect of library compounds

Sequences of proteins named here, by UniProt entry; tags and fusion partners are left off. Residues count along the entry.
UniProt A4I591, 1-473: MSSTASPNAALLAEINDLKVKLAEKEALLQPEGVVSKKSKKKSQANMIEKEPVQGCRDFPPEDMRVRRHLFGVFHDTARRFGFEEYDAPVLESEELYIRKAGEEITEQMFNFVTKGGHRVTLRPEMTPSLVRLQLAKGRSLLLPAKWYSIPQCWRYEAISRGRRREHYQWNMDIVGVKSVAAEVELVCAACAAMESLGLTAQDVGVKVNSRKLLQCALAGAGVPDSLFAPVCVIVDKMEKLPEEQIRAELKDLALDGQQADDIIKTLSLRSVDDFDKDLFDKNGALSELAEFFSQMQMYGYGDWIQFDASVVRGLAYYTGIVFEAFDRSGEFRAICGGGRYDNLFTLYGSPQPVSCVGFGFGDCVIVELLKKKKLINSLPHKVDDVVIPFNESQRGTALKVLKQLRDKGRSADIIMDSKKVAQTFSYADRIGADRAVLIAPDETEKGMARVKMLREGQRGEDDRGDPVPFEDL
UniProt Q8IDJ8, 1-583: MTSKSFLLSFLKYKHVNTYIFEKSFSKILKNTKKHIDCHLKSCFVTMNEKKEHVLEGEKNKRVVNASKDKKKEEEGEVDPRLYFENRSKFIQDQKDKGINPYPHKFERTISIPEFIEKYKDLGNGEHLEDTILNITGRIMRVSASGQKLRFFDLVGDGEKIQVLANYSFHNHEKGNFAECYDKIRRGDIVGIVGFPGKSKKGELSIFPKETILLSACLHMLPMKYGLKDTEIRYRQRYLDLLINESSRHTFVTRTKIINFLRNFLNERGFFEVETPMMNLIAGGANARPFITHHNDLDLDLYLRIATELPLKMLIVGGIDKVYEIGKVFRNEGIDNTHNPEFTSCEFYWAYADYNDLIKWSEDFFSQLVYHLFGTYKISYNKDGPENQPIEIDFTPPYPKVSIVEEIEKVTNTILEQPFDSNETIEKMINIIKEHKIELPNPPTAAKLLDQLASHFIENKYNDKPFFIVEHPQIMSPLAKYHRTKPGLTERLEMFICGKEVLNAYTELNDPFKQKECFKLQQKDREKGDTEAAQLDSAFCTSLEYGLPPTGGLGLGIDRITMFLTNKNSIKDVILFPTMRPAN
UniProt Q4DA54, 1-478: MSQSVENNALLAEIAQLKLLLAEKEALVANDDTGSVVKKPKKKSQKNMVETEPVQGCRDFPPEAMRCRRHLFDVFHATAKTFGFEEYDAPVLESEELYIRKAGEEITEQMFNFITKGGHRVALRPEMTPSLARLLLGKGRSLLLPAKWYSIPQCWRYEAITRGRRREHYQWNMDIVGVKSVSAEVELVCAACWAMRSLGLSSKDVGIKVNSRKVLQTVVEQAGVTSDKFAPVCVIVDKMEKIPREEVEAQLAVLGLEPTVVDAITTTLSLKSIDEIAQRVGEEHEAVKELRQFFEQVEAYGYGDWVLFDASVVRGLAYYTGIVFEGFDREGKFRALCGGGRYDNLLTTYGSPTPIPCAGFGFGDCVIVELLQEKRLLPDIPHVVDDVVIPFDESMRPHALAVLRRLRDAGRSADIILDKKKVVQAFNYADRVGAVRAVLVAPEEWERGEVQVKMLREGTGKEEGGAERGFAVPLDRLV

Source: ChEMBL document CHEMBL3988442, “University of Dundee, Small-Polar-MMV Screening Library” (2021).

LiHisRS: 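Enzyme assay of histidyl-tRNA synthetase; the read-out is not stated. Target: Histidine-tRNA ligase, Leishmania infantum (UniProt A4I591). Concentration: 30 µM. The record gives no direction; compounds that gave an IC50 in retests scored well above the rest, so higher reads as stronger inhibition. The assay is labelled LdHisRS but filed under L. infantum. About 69,000 compounds were tested under these conditions; 0.6% (about 410) showed 50% or more at least once.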
PfKRS1: 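Enzyme assay of the cytosolic lysyl-tRNA synthetase in 384-well plates, read by luminescence. Target: Lysine-tRNA ligase, Plasmodium falciparum 3D7 (UniProt Q8IDJ8). Compounds at 30 µM. Direction is inferred from only a few compounds that gave an IC50; most scored high, so higher reads as stronger inhibition. About 69,000 compounds were tested under these conditions; 0.071% (about 49) showed 50% or more at least once.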
TcHisRS: 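Enzyme assay of histidyl-tRNA synthetase; the read-out is not stated. Target: Histidine-tRNA ligase, Trypanosoma cruzi CL Brener (UniProt Q4DA54). Compounds at 30 µM. The record gives no direction; compounds that gave an IC50 in retests scored well above the rest, so higher reads as stronger inhibition. About 69,000 compounds were tested under these conditions; 0.045% (about 31) showed 50% or more at least once.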

Values are the deposited “Percent Effect”, in %. The controls that fix the scale are not given in the record; negative values are as filed. This is an unselected part of the compounds tested.

Compound	LiHisRS	PfKRS1	TcHisRS
Cc1cc(C)c2nc(CN3CCOC(CCO)C3)cc(O)c2c1 (configuration not stated)	23.08%	2.891%	2.5%
Clc1ccc2cccnc2c1CNC1CCc2ncnn2C1 (configuration not stated)	21.24%	12.09%	4.464%
O=C(CN1C(=O)CCNC1=O)N1CCOC(c2ccc(Cl)c(Cl)c2)C1 (configuration not stated)	15.62%	3.322%	7.447%
Cc1nn(CC(=O)N2CCCC2Cn2cccn2)c(C)c1Cl (configuration not stated)	15.38%	-1.65%	-0.5348%
CS(=O)(=O)N1CCN(c2ccc(Nc3ccccn3)nn2)CC1	10.43%	4.878%	4.124%
Cc1cccc(COc2ccc(NC(=O)C(C)NC(N)=O)c(C)c2)c1 (configuration not stated)	12.82%	1.008%	-2.222%
Cc1nc(CN2C[C@@H]3CN(C(=O)c4cccn4C)C[C@@H]3C2)cs1	-1.923%	3.978%	2.913%
Cc1ccc(=O)n(CC(=O)N(C)Cc2csc(-c3cccs3)n2)n1	11.29%	3.846%	11.49%
Cc1nccn1Cc1cccc(CNC(=O)c2ccn(C)c(=O)c2)c1	5.714%	3.643%	1.02%
CN(C)C(=O)CN1CCCC2(CCN(c3ccc(C#N)cn3)C2)C1 (configuration not stated)	13.16%	-0.7985%	6.897%
O=C(NCC1CC1)[C@H]1C[C@@H]2CCN(CCc3ccccc3)C[C@H]2O1	21%	3.148%	6.122%
COC(=O)CNc1ccc(-c2nc(Cc3ccc(OC)cc3)no2)cn1	6.4%	-0.202%	-23.53%
Cc1nc(CNC(C)c2ccc(S(=O)(=O)N(C)C)cc2)no1 (configuration not stated)	9.091%	7.564%	6.404%
Cc1nc(CO[C@H]2CN(Cc3ccccn3)[C@@H]3CCCO[C@H]23)cs1	-2.655%	5.357%	4%
Cc1nc2n(n1)CC(NCc1cc(Cl)c3c(c1)OCCCO3)CC2 (configuration not stated)	19.7%	9.072%	-1.515%
CN(Cc1ccc2nsnc2c1)CC1(O)CCNC1 (configuration not stated)	17.65%	14.55%	8.995%
CCCN1CCN(C(=O)c2cccnc2)CC1	20.51%	2.597%	-1.149%
COc1cccc(Nc2nc(C3CCCNC3)c3ccccn23)c1 (configuration not stated)	38.85%	2.136%	21.84%
Cc1nccc(C(=O)N2CCOC(c3nc(C(C)C)n[nH]3)C2)n1 (configuration not stated)	6.195%	-0.6909%	3.207%
COCCN1CCOCC12CCN(Cc1ccn(C)n1)CC2	16.24%	2.077%	5.882%
Cn1cc(CN2C[C@@H]3OCCN(c4ncccn4)[C@@H]3C2)cn1	8.824%	-0.1393%	-0.9852%
Cc1cc(C2CCCN(Cc3cccnc3)C2)n[nH]1 (configuration not stated)	13.33%	2.768%	12.73%
CC(=O)N1N=C(c2ccccc2)OC1C(=O)N(C)Cc1ccccc1 (configuration not stated)	19.8%	2.201%	10.23%
CNc1nc(CNC(=O)Nc2ccccc2-c2noc(C)n2)cs1	13.6%	-4.281%	4.183%
Cc1nc(-c2ccccc2)n(CC(=O)NC2CCCC2)n1	10.43%	3.361%	6.322%
CC(C)c1cc(NC(=O)c2ccc(NC3CC3)nc2)[nH]n1	-71.23%	8.753%	2.29%
Cc1ccc(Cl)cc1NC(=O)C1CSc2ncc(C)c(=O)n2C1 (configuration not stated)	7.692%	2.225%	2.41%
CC(C)Oc1ccc(CN2CCC(c3n[nH]c4ncccc34)CC2)cc1	13.54%	-2.668%	2.128%
c1ccc(CCCN2CC[C@H](c3nnc(-c4cccnc4)o3)C2)cc1	30.56%	4.538%	11.88%
CCOc1cccc2c1OCC(C(=O)NS(=O)(=O)Cc1ccccc1)=C2	4.762%	25.96%	0.7519%
CN(Cc1noc(C2CC2)n1)C1CCN(Cc2cccc(F)c2F)C1 (configuration not stated)	12.84%	-0.1334%	2.941%
CNC(=O)c1csc(-c2ccoc2)n1	13.33%	6.641%	8.333%
Clc1cc(NCc2ccncc2)nc2[nH]ccc12	71.08%	3.25%	45.27%
O=C(NC1CCN(C2CC2)C1)c1cn(-c2ccc(F)cc2)nn1 (configuration not stated)	6.218%	2.057%	7.182%
CC(NC(=O)c1cccc(CCC(C)(C)O)c1)c1nnc(N)s1 (configuration not stated)	15.83%	1.166%	1.932%
NC(=O)Cn1ccc(O)c(Cc2ccc(Cl)cc2Cl)c1=O	12.5%	1.445%	11.46%
COCCN1CCC2(CC1)CC(N1CCOCC1)c1ccc(C)cc12 (configuration not stated)	8%	2.943%	0%
CCN(Cc1ccc2c(c1)OCCO2)C(=O)Cn1cccnc1=O	8.621%	3.186%	6.78%
c1cc(CN2CCCC2)ccc1CNc1cncc2nnnn12	12.9%	11.99%	9.845%
COC(=O)CN(CC1CCOC1)C1CC1 (configuration not stated)	11.11%	-2.016%	2.222%
CN1C(=O)CC(C(=O)O)C12CCN(Cc1cc(Cl)ccc1F)CC2 (configuration not stated)	0%	-2.424%	6.557%
COc1ccc(C2CC(=O)Nc3nc(N4CCOCC4)sc32)c(OC)c1 (configuration not stated)	115%	86.42%	72.05%

The first 4 entries again:

| Compound | LiHisRS | PfKRS1 | TcHisRS |
|---|---|---|---|
| `Cc1cc(C)c2nc(CN3CCOC(CCO)C3)cc(O)c2c1` (configuration not stated) | 23.08% | 2.891% | 2.5% |
| `Clc1ccc2cccnc2c1CNC1CCc2ncnn2C1` (configuration not stated) | 21.24% | 12.09% | 4.464% |
| `O=C(CN1C(=O)CCNC1=O)N1CCOC(c2ccc(Cl)c(Cl)c2)C1` (configuration not stated) | 15.62% | 3.322% | 7.447% |
| `Cc1nn(CC(=O)N2CCCC2Cn2cccn2)c(C)c1Cl` (configuration not stated) | 15.38% | -1.65% | -0.5348% |